Results on 2 molecules are retold here after article PMC11093616.

Assay [1] addresses T1, OTUD4 (OTU domain-containing protein 4), endogenous (human (endogenous in MDA-MB468, HCC827, SKOV3, HCT116)) (UniProt Q01804).
T1 sequence: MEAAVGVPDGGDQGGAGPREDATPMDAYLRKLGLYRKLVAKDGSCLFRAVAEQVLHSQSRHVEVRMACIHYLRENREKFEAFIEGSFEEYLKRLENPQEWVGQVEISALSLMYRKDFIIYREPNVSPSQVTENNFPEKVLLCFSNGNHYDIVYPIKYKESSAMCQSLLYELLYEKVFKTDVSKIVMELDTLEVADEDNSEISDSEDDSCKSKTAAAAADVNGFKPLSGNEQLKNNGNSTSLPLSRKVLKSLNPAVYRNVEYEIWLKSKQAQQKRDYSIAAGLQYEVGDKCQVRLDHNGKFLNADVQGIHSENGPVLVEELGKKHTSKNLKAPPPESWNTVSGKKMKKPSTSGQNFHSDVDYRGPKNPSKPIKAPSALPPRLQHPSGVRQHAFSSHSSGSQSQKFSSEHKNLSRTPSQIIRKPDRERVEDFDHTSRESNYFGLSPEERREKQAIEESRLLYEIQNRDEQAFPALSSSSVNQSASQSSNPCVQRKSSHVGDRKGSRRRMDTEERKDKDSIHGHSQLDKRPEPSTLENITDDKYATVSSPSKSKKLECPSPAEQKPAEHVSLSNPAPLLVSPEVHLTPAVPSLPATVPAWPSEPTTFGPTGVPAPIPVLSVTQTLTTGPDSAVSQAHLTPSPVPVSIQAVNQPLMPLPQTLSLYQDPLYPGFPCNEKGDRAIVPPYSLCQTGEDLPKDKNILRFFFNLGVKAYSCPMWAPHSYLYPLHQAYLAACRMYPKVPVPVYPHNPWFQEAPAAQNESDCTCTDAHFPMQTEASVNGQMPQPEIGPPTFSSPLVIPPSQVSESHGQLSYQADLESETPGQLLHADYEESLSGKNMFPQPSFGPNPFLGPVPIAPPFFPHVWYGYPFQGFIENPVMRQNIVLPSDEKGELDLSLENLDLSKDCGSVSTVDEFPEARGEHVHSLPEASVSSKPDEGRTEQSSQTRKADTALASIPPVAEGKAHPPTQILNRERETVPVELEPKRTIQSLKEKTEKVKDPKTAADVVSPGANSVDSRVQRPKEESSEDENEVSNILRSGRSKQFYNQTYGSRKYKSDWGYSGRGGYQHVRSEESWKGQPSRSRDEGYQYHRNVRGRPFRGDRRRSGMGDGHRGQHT
The assay can be described thus: co-IP; endogenous proteins, MDA-MB468 cells; immunoprecipitation of CD73 (Figure 2B) and of OTUD4 (Figure 2C).

The target of assay [2] is T2, V5-tagged OTUD4 (human) (UniProt Q01804).
T2 sequence: T1 sequence
Nature of the assay: co-IP; HEK293T cotransfected with V5-tagged OTUD4 constructs and Flag/HA-tagged CD73 constructs; V5-tagged OTUD4 precipitated, blot with anti-Flag.

Assay [3] has as its target T3, V5-tagged OTUD4 mutant without the R380-N410 segment (human) (UniProt Q01804).
T3 sequence: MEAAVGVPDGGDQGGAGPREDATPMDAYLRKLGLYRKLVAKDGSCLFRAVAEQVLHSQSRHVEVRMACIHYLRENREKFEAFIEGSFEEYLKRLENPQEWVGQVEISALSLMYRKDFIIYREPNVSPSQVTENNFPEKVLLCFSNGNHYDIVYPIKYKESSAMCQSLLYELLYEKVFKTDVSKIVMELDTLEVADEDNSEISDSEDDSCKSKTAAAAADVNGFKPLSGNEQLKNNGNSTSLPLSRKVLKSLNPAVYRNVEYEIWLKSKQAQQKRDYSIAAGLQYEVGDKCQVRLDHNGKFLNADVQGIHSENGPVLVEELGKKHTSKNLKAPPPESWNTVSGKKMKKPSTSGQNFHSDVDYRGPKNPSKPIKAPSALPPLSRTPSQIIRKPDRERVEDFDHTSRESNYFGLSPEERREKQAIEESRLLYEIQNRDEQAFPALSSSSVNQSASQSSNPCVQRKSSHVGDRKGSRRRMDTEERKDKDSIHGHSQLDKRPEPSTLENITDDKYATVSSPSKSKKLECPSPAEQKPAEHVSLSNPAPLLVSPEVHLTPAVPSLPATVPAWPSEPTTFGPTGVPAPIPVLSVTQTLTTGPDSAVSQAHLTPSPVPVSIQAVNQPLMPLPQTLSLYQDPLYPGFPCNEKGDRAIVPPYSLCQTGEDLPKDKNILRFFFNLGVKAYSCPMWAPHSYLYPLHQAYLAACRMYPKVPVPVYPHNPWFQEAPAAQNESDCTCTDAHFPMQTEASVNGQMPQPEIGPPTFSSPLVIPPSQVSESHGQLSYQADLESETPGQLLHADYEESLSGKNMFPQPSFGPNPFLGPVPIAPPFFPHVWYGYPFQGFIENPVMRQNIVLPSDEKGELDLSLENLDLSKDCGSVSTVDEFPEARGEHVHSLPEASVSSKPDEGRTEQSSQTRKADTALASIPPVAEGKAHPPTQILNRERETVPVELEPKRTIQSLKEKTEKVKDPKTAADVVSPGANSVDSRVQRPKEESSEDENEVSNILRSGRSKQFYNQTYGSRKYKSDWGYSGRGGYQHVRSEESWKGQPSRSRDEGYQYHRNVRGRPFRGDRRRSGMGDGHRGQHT
The assay is described as above.

No constants are given. Whether binding was seen depends on the method and setting. Binding seen in cells or lysates may run through a third protein. Some binding calls cover weakened binding; strength is not graded here. For part of these data: Where a sequence is shown, tags or fusion partners need not be part of it.

B1: CD73, endogenous (protein, UniProt P21589 27-549)
chain: WELTILHTNDVHSRLEQTSEDSSKCVNASRCMGGVARLFTKVQQIRRAEPNVLLLDAGDQYQGTIWFTVYKGAEVAHFMNALRYDAMALGNHEFDNGVEGLIEPLLKEAKFPILSANIKAKGPLASQISGLYLPYKVLPVGDEVVGIVGYTSKETPFLSNPGTNLVFEDEITALQPEVDKLKTLNVNKIIALGHSGFEMDKLIAQKVRGVDVVVGGHSNTFLYTGNPPSKEVPAGKYPFIVTSDDGRKVPVVQAYAFGKYLGYLKIEFDERGNVISSHGNPILLNSSIPEDPSIKADINKWRIKLDNYSTQELGKTIVYLDGSSQSCRFRECNMGNLICDAMINNNLRHTDEMFWNHVSMCILNGGGIRSPIDERNNGTITWENLAAVLPFGGTFDLVQLKGSTLKKAFEHSVHRYGQSTGEFLQVGGIHVVYDLSRKPGDRVVKLDVLCTKCRVPSYDPLKMDEVYKVILPNFLANGGDGFQMIKDELLRHDSGDQDINVVSTYISKMKVIYPAVEGRIKFS
Take B1: the binding result in assay [1] is listed as “binds”.

B2: Flag/HA-tagged CD73 (HEK293T) (protein, UniProt P21589 27-549)
chain: B1 chain
Turning to B2, the binding result in assay [2] is “binds”; in assay [3] it was “no binding”.
